Patent publication US11180760B2, “Identification of molecular pathways and methods of use thereof for treating retinal neurodegeneration and other neurodegenerative disorders” (THE JOHNS HOPKINS UNIVERSITY, priority 2012, dated 2021)
For at least one compound, name, drawing or mass did not settle the structure.

Legend:
RGCs = RGCs transfected with MAP3K12/MAP3K13 siRNA then plated in sunitinib or VX680, survival at 72 hours; type: cell-based, mice; conditions: RGCs transfected with 10 nM siRNA against MAP3K12 and MAP3K13 alone or in combination, 0, 12, 37, 111, 333, 1000 nM drug (FIG. 3F)
Procedure: RGCs were transfected with 10 nM siRNA against MAP3K12 and MAP3K13 alone or in combination and then plated in 0, 12, 37, 111, 333, and 1000 nM sunitinib (FIG. 3F on left) or VX680 (FIG. 3F on right). Survival at 72 hours is shown.

primary RGCs = assay: Primary RGC survival in neurotrophin-depleted media with kinase inhibitors (calcein AM)

## CCN(CC)CCNC(=O)c1c(C)[nH]c(/C=C2\C(=O)Nc3ccc(F)cc32)c1C [sunitinib]
RGCs
  cell viability, survival at 72 hours: higher cell viability
Primary RGCs; 1 μM sunitinib vs vehicle, neurotrophin-depleted media, calcein AM at 72 hours (FIG. 1A)
  survival of the RGCs: greatly increased
Primary RGCs; increasing doses (FIG. 1B)
  survival of primary RGCs in response to increasing doses: neuroprotective
